# Results from the supplement of paper PMC6411743.
# Amino acid sequences for entries named in this document (tags omitted). A change or cut given only in a name is not applied to a line headed by its entry.
# UniProt Q16222: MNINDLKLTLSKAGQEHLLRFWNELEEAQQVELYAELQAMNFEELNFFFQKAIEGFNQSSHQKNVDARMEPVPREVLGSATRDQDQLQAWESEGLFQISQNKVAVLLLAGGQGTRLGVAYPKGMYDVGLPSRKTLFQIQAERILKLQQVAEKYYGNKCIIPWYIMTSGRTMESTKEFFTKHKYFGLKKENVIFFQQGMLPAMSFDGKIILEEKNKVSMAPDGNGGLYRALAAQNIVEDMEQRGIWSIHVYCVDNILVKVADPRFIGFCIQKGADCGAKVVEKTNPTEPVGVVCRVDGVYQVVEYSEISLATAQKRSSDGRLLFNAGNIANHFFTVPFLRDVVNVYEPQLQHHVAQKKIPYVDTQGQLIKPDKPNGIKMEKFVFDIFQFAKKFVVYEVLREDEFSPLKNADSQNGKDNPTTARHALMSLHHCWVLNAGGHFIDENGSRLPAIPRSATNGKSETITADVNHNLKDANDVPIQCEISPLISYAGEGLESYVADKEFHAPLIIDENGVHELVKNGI
# UniProt Q2TAL8: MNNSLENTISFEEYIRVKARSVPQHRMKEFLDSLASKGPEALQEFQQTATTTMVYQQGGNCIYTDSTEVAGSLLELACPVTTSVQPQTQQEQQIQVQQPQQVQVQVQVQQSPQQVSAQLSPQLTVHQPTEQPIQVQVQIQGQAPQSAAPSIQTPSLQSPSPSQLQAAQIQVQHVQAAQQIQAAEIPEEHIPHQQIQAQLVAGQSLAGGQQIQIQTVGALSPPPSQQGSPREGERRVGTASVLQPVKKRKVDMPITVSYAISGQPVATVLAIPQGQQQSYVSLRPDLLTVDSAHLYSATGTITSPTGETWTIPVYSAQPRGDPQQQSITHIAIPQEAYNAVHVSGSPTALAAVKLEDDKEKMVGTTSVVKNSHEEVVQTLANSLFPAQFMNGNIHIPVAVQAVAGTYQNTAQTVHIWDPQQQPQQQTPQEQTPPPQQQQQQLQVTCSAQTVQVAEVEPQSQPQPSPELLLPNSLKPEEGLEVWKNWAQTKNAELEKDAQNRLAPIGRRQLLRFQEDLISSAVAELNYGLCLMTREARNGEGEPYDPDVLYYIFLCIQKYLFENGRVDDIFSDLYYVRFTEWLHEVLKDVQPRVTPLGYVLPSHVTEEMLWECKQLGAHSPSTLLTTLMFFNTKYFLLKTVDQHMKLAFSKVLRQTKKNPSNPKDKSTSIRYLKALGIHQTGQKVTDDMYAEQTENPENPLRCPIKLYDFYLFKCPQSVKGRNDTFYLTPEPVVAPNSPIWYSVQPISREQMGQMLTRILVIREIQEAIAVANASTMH
# UniProt P49591: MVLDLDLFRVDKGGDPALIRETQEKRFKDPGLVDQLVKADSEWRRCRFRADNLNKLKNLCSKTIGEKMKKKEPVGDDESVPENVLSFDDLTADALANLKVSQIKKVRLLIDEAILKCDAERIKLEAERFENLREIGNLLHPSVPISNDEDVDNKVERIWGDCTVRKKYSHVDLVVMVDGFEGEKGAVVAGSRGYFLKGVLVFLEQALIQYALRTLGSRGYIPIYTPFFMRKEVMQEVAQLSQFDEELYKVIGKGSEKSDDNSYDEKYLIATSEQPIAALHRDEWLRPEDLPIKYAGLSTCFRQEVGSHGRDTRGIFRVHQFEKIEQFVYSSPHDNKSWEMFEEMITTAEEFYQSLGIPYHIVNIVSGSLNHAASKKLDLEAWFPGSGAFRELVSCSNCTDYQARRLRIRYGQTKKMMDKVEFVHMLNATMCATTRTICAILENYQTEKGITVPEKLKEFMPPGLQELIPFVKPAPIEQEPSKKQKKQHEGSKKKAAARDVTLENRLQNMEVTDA
# UniProt Q5T3F8: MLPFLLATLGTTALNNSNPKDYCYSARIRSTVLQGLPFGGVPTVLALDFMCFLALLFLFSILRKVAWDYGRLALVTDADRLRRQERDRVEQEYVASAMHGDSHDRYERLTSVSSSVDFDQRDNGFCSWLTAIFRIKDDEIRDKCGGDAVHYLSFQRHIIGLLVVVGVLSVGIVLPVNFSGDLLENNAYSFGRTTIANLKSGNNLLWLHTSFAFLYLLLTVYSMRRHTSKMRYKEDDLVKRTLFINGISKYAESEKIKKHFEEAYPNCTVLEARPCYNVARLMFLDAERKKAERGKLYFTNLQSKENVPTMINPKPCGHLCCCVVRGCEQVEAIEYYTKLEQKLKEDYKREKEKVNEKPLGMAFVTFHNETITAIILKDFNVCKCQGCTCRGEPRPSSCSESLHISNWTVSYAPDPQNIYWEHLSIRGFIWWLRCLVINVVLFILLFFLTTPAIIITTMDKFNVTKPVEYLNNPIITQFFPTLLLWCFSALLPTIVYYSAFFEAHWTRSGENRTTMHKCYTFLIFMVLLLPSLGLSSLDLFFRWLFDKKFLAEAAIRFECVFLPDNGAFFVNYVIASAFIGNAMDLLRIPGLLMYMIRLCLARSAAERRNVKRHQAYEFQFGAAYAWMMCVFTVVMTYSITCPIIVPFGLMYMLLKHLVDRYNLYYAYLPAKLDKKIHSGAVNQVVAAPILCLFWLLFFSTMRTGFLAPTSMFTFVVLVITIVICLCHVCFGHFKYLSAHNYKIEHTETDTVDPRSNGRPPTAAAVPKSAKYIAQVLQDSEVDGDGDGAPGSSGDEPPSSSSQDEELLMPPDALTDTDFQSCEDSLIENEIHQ
# UniProt Q15785: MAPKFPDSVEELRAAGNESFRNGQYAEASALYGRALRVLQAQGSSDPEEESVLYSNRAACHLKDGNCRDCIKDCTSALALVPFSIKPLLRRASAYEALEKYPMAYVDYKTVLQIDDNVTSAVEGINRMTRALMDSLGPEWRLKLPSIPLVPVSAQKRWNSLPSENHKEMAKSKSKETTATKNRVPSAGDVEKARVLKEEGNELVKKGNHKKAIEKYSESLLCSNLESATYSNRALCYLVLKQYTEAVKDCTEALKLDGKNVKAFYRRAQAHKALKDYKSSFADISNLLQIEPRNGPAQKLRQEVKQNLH
# UniProt Q15714: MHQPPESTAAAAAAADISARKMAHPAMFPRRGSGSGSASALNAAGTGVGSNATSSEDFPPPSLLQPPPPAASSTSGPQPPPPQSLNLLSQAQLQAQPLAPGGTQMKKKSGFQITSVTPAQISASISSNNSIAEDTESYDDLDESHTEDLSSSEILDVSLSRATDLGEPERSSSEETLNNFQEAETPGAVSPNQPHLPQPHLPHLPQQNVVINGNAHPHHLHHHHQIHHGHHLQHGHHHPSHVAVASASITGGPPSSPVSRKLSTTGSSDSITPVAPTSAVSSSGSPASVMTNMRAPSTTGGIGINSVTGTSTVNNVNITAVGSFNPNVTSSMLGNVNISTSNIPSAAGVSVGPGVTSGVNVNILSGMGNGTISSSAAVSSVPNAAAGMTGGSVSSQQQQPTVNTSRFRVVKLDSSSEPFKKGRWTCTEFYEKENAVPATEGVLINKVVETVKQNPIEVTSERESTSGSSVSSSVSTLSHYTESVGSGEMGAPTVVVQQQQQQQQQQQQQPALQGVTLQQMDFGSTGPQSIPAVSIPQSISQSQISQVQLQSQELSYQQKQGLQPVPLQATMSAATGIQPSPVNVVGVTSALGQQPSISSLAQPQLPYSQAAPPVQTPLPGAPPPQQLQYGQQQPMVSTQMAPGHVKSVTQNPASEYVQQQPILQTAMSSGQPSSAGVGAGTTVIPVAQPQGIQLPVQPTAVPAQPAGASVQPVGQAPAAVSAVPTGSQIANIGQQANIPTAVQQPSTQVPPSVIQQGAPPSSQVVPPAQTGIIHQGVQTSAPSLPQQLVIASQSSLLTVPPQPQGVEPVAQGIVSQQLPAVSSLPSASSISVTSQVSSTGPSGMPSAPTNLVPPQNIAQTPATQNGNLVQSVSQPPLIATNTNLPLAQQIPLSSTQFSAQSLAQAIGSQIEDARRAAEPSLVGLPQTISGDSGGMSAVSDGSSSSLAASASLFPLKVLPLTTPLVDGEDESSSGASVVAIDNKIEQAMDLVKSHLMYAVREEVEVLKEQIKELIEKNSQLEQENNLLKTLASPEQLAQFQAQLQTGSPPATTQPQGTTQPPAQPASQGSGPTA
# UniProt Q15365, whole entry: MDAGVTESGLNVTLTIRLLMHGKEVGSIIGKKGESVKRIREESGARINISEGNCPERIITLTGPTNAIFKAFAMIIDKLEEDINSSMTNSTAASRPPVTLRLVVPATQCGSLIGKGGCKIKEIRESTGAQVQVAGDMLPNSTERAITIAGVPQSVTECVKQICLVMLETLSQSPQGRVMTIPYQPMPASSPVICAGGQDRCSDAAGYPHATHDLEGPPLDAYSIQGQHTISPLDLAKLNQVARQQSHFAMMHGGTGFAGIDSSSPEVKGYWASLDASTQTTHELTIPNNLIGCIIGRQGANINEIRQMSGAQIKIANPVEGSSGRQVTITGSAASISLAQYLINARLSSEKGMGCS
# UniProt Q16762: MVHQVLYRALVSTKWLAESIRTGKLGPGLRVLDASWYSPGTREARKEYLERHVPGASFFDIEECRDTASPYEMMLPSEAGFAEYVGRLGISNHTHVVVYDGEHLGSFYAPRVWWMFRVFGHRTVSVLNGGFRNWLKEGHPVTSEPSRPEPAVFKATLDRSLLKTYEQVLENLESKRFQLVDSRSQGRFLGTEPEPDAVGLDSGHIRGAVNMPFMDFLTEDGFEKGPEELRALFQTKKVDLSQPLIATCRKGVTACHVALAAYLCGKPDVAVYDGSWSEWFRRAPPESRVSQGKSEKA
# UniProt Q16134: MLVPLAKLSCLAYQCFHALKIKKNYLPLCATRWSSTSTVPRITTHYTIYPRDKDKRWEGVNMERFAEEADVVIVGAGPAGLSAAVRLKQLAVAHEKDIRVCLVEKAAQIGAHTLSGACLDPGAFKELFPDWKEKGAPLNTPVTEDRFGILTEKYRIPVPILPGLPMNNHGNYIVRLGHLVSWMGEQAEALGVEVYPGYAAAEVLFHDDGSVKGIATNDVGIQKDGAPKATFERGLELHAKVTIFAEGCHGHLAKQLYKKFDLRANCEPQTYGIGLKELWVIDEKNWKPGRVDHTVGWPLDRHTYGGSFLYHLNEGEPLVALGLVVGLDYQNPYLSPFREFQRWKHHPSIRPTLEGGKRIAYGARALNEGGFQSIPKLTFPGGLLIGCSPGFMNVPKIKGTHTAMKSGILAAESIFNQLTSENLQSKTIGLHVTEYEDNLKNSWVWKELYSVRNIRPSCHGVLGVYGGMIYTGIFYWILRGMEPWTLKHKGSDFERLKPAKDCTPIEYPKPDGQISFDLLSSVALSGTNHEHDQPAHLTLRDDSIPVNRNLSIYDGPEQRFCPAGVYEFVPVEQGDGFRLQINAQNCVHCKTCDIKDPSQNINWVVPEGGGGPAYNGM
# UniProt Q8NDD1: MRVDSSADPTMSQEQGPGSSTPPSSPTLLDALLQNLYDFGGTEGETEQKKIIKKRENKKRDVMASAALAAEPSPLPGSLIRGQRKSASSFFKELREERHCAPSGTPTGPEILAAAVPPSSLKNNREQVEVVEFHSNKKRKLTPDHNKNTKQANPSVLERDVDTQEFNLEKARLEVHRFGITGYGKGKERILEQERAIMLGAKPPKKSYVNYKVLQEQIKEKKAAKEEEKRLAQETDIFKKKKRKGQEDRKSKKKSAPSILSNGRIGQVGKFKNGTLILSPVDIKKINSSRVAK
# UniProt Q58WW2: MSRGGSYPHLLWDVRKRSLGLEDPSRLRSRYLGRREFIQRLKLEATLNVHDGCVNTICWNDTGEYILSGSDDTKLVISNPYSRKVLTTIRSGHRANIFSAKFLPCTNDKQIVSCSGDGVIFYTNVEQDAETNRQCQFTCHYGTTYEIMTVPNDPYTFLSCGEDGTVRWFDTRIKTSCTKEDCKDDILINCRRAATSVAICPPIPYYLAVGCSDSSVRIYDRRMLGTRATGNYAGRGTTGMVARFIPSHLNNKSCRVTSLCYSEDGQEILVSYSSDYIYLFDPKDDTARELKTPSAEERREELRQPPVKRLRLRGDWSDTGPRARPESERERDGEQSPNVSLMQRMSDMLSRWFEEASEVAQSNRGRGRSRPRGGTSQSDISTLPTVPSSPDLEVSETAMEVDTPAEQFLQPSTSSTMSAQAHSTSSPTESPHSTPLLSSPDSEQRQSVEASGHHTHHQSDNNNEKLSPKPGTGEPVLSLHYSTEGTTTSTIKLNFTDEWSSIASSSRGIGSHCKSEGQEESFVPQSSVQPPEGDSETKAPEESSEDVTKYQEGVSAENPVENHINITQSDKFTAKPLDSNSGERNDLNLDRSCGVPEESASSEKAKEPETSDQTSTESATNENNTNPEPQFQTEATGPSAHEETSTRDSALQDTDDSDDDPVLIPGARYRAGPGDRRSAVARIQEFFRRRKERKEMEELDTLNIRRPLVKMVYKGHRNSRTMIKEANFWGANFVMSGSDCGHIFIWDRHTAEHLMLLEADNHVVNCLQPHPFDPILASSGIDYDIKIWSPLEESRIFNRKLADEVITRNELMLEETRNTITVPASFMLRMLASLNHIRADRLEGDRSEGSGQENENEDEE
# ± gives the standard deviation of the averaged measurements. This is a selection; strong and weak results do not stand in their true shares. Most entries show no effect beyond the scatter of the controls.
# Compound: Nc1ncnc2c1ncn2[C@@H]1O[C@H](COP(=O)(O)OP(=O)(O)NP(=O)(O)O)[C@@H](O)[C@H]1O [adenylyl imidodiphosphate]
# Experiment: NP40-soluble protein abundance relative to vehicle (solubility fold change) (ratio); higher = more soluble protein in presence of AMP-PNP
# Conditions: concentration: 0.5mM
# Outline: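 Crude Jurkat lysate, prepared by Dounce homogenisation, was exposed to eight concentrations from 0.1 to 10 mM for 10 min at room temperature and then 3 min at 37 °C. Solubilisation used 0.8% NP40 with benzonase for 60 min at 4 °C, followed by ultracentrifugation and TMT labelling of the supernatant for LC-MS/MS. After vsn normalisation of intensities, each value is the fold change against the detergent-processed vehicle within each replicate, across three independent experiments.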
row,Target,NP40-soluble protein abundance
1,CTC1 (UniProt Q2NKJ3),0.9671 ± 0.0021
2,UniProt Q16222 and related entries,0.992 ± 0.043
3,QRICH1 (UniProt Q2TAL8),0.995 ± 0.02
4,Q5T5C7 (UniProt P49591),0.959 ± 0.095
5,UniProt Q5T3F8 and related entries,0.997 ± 0.042
6,TOMM34 (UniProt Q15785),1.02 ± 0.062
7,TSC22D1 (UniProt Q15714),1 ± 0.044
8,UniProt Q15365,1.01 ± 0.041
9,TST (UniProt Q16762),1.01 ± 0.032
10,ETFDH (UniProt Q16134),0.9962 ± 0.0088
11,UniProt Q15149 and related entries,1.02 ± 0.011
12,Q5TBH9 and related entries (UniProt Q8NDD1),1.01 ± 0.051
13,UniProt Q58WW2 and related entries,0.989 ± 0.015

# 2 entries from above, as tab-separated lines.
row	Target	NP40-soluble protein abundance
3	QRICH1 (UniProt Q2TAL8)	0.995 ± 0.02
12	Q5TBH9 and related entries (UniProt Q8NDD1)	1.01 ± 0.051
